# Measured values: the supplement of paper PMC12067093, “Discovery and optimisation of a covalent ligand for TRIM25 and its application to targeted protein ubiquitination” (Chemical Science, 2025)
# The chains behind the UniProt entries cited, without tags or fusion partners. Where a name states a change or a piece, a line headed by the entry shows the natural chain unless it says otherwise.
# UniProt Q6IE81, whole entry, looked up: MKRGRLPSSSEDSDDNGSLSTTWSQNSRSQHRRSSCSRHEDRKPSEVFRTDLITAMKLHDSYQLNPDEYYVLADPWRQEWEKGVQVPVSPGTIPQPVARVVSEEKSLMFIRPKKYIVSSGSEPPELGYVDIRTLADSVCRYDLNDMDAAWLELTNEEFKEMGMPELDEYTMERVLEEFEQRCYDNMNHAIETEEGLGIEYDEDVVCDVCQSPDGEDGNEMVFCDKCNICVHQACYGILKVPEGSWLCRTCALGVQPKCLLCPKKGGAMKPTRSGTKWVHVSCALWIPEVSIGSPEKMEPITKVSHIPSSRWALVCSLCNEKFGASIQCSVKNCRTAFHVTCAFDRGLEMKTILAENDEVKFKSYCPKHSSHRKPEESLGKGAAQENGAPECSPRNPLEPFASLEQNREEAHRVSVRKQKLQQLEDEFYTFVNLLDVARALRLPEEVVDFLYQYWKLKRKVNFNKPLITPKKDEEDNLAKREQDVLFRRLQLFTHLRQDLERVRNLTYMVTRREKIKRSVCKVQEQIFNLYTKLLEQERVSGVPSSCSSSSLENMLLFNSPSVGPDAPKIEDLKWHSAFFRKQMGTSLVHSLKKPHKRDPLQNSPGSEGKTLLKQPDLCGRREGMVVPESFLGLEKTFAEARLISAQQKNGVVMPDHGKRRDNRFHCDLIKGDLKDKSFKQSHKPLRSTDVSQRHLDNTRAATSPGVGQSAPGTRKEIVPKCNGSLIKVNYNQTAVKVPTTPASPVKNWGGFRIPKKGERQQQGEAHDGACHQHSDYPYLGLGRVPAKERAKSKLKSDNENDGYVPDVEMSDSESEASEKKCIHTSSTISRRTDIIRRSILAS
# UniProt Q7L273: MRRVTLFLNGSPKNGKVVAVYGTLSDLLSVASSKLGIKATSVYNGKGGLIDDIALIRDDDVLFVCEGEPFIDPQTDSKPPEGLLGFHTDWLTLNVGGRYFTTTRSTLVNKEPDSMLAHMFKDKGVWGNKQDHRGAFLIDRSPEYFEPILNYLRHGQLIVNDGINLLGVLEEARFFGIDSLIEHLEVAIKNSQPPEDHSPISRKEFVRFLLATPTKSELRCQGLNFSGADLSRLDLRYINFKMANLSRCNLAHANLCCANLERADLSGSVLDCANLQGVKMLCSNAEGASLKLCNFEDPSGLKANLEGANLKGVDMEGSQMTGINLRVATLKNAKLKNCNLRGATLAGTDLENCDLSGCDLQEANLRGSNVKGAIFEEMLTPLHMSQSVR
# UniProt O94819: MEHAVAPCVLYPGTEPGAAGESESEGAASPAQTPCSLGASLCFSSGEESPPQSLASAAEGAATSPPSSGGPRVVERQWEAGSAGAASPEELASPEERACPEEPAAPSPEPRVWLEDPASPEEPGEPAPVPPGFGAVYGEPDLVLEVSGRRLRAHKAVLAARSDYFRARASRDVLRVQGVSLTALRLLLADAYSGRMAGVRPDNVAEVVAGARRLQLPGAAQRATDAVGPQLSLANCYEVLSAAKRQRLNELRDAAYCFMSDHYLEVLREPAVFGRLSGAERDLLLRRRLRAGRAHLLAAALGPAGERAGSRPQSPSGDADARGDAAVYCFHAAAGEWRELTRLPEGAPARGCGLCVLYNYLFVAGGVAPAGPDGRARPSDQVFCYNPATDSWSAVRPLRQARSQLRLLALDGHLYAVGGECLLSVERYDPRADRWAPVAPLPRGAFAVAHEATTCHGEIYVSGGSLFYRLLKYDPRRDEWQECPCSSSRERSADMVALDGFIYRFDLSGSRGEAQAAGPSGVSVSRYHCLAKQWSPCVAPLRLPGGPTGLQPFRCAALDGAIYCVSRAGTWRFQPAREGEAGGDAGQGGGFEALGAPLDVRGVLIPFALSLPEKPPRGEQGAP
# UniProt Q15046, whole entry, looked up: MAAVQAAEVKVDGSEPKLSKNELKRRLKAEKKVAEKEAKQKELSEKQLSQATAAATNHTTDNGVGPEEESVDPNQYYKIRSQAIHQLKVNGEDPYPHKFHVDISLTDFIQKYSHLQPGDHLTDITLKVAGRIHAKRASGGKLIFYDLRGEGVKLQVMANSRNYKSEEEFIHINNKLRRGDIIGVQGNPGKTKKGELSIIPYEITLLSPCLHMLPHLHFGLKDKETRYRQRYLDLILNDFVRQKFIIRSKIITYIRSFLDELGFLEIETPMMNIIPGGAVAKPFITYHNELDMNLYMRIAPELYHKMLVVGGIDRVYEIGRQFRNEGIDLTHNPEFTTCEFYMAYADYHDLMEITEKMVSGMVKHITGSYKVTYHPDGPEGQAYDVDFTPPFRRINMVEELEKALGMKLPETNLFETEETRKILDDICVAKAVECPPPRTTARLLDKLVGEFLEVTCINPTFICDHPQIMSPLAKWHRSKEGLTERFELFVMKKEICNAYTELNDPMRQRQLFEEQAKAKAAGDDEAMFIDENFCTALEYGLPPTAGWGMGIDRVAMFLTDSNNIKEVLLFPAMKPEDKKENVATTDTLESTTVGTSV
# UniProt Q14643, whole entry, looked up: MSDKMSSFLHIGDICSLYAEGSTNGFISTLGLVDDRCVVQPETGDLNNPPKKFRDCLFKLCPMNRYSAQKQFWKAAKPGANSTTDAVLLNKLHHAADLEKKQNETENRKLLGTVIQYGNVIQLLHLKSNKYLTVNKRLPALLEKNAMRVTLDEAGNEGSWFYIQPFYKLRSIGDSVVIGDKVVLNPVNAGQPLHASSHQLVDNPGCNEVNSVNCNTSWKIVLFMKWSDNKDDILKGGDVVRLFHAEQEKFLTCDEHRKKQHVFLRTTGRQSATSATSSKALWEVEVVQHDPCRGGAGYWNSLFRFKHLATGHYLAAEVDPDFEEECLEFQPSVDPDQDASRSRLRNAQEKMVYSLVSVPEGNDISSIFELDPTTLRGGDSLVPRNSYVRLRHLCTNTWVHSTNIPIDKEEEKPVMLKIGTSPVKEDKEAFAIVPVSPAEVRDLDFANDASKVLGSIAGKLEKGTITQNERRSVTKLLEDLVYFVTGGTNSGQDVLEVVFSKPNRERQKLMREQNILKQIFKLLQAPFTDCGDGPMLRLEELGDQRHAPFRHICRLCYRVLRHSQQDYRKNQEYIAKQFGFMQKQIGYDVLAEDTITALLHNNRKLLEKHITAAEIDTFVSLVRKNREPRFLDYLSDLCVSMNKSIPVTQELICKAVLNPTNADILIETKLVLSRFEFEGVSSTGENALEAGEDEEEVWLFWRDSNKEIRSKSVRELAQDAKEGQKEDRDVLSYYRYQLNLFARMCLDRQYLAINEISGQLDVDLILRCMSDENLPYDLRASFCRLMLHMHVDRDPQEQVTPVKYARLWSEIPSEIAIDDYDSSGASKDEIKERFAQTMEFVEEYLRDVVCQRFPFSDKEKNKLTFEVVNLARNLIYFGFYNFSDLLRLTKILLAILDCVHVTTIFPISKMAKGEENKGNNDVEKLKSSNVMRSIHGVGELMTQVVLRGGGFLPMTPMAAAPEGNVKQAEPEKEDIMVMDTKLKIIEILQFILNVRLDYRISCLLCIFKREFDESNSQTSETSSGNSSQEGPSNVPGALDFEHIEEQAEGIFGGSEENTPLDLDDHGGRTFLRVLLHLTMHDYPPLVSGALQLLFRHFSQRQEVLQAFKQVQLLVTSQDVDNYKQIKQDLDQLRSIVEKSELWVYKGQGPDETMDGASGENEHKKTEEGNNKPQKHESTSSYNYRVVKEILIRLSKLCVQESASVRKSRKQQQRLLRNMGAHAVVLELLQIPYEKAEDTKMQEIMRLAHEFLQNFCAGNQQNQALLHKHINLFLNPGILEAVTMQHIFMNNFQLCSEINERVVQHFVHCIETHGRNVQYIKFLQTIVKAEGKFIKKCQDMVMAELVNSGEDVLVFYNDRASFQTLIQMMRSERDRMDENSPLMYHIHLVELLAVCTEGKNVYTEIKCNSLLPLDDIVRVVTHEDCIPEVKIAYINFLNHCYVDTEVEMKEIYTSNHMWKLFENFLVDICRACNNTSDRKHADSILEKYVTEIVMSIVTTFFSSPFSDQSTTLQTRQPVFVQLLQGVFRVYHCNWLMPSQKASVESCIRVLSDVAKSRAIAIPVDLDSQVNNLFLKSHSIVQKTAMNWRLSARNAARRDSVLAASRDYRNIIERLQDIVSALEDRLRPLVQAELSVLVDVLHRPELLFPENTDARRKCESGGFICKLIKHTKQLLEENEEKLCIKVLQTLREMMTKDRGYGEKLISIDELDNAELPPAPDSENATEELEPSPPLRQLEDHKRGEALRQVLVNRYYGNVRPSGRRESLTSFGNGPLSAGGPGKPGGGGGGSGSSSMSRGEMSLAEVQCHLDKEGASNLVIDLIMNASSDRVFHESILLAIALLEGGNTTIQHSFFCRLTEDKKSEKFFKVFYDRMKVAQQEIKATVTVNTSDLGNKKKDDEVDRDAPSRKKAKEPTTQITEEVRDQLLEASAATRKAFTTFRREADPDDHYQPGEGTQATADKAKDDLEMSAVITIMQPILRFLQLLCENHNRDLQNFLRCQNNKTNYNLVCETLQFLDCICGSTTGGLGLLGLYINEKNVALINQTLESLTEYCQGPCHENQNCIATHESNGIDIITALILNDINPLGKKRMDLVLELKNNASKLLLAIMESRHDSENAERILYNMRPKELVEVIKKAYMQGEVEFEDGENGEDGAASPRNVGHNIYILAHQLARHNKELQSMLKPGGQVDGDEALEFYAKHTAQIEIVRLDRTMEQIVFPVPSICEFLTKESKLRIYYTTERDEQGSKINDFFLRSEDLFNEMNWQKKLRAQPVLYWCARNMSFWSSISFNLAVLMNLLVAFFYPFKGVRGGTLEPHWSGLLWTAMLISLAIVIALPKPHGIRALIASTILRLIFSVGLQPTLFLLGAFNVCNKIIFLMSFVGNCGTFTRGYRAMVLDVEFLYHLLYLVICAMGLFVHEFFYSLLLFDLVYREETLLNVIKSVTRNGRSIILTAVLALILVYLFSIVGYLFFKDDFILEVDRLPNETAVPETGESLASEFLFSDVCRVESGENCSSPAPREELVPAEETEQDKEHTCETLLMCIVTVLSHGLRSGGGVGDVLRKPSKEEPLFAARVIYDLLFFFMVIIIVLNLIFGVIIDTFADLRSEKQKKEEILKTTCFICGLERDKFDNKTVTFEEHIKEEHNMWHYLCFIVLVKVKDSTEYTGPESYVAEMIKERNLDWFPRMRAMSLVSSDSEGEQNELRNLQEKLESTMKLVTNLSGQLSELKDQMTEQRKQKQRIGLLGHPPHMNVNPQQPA
# UniProt Q6PI47: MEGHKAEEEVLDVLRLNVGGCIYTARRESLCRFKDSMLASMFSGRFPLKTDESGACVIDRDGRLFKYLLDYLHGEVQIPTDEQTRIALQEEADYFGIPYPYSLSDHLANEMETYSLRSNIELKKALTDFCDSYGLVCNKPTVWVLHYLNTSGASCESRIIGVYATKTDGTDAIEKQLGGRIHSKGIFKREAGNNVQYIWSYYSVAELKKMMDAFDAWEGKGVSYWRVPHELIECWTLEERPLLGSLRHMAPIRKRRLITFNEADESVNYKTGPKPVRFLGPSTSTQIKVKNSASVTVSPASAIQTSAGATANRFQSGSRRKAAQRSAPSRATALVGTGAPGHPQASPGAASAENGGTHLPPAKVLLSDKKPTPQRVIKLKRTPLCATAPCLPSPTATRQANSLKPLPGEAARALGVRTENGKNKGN
# UniProt Q92830, whole entry, looked up: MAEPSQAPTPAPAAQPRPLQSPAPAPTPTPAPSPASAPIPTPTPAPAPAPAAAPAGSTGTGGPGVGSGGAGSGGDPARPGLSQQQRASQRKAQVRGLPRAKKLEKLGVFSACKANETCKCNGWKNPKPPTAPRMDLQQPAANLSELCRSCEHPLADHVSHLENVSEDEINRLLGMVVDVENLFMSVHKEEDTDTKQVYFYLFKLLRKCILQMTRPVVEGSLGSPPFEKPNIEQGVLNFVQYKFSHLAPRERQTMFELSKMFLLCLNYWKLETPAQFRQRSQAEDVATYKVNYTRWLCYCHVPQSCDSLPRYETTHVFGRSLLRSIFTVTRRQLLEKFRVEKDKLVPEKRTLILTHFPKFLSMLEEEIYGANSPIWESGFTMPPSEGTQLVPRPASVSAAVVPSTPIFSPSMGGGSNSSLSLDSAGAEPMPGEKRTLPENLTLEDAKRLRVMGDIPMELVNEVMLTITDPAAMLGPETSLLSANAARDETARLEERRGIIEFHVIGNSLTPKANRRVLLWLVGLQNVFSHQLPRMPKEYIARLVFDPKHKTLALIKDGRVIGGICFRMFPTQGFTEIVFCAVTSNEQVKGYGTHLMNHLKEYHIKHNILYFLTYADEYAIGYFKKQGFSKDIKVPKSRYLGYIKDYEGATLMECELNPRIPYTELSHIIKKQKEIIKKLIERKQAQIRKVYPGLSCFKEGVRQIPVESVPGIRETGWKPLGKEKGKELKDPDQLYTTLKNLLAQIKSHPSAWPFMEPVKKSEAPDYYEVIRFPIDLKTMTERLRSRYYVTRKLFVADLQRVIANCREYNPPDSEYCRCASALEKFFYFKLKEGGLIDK
# The other results are listed elsewhere or left out.
# Compound: CC1Cc2ccccc2N1C(=O)C1CCCN(C1)C(=O)CCl (mixture of isomers) [TRIM25 ligand 11 (diastereomer mixture)]
# Assay: probe-labelled cysteine peptide fold change vs DMSO (competition) (log2 fold change); higher = less target engagement (more negative = stronger competition)
# Conditions: 10 µM; THP-1; incubation time: 4 h
# 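Further: competitive chemoproteomic profiling in live THP-1 cells with an iodoacetamide desthiobiotin (IA-DTB) probe, comparing probe-labelled peptide intensities in compound-treated cells against DMSO-treated controls.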
row,Target,probe-labelled cysteine peptide fold change
1,KEAP1_Q14145_288_CEILQSDSR (UniProt Q14145),-0.0749
2,IVNS1ABP_Q9Y6Y0_495_LWTSCAPLNIR (UniProt Q9Y6Y0),0.165
3,KCMF1_Q9P0J7_54_HTTDHPMQCILTR (UniProt Q9P0J7),-0.00917
4,JADE1_Q6IE81_258+261_CLLCPK (UniProt Q6IE81),-0.0455
5,ITPR3_Q14573_2455_ACDTLLMCIVTVMNHGLR (UniProt Q14573),0.0426
6,IVD_P26440_261_GSNTCELIFEDCKIPAANILGHENK (UniProt P26440),-0.304
7,KIAA0930_Q6ICG6_119_LDYMVTCAVCTR (UniProt Q6ICG6),-0.00726
8,KDM3B_Q7LBC6_1045_EMCDVCETTLFNIHWVCR (UniProt Q7LBC6),0.283
9,ITSN2_Q9NZM3_1429_ENSDRLEWIQAHVQCEGLAEQLIFNSLTNCLGPR (UniProt Q9NZM3),-0.507
10,KAT5_Q92993_234_NIECIELGR (UniProt Q92993),-0.0563
11,KDM4A_O75164_533_DSISSDSETSEPLSCR (UniProt O75164),0.143
12,JMJD6_Q6NYC1_207_WCLFPTSTPR (UniProt Q6NYC1),-0.0876
13,KIF11_P52732_723_QTHSQELCK (UniProt P52732),-0.0306
14,KANSL2_Q9H9L4_46_LEGQEFCIK (UniProt Q9H9L4),0.127
15,KCTD9_Q7L273_220_CQGLNFSGADLSR (UniProt Q7L273),0.0726
16,KBTBD11_O94819_257_DAAYCFMSDHYLEVLREPAVFGR (UniProt O94819),-0.162
17,KIF14_Q15058_508_IHDLLVCK (UniProt Q15058),-0.0396
18,KARS_Q15046_209_KGELSIIPYEITLLSPCLHMLPHLHFGLK (UniProt Q15046),-0.00824
19,ITPR1_Q14643_2224_TMEQIVFPVPSICEFLTK (UniProt Q14643),0.18

row,Target,probe-labelled cysteine peptide fold change
1,KBTBD11_O94819_485_RDEWQECPCSSSR (UniProt O94819),-0.0629
2,ITPRID2_P28290_878_TLSTHSVPNISGATCSAFASPFGCPYSHR (UniProt P28290),0.109
3,JARID2_Q92833_206_TATNNASSSCQSTPR (UniProt Q92833),0.192
4,KDSR_Q06136_245_LISETTSVCKPEQVAK (UniProt Q06136),-0.0803
5,KDM3B_Q7LBC6_937_EQEQDDSTVACR (UniProt Q7LBC6),0.0635
6,KANK2_Q63ZY3_761+780_ALLACEADVNVQDDDGSTALMCACEHGHK (UniProt Q63ZY3),0.0346
7,JAK2_O60674_961_LLQYTSQICK (UniProt O60674),0.134
8,KCTD18_Q6PI47_234_VPHELIECWTLEERPLLGSLR (UniProt Q6PI47),0.152
9,KDM1A_O60341_665_VVLCFDR (UniProt O60341),0.0729
10,KDM3B_Q7LBC6_569_QSLESLSSGLCK (UniProt Q7LBC6),-0.082
11,KIAA0100_Q14667_1055_LVGTEQSGQPCSR (UniProt Q14667),0.0196
12,JMJD1C_Q15652_2163_LYSDIPHSWICEK (UniProt Q15652),0.00263
13,JUP_P14923_457_AGDKDDITEPAVCALR (UniProt P14923),-0.0404
14,KDM5A_P29375_709_LVCLYHPTDLCPCPMQK (UniProt P29375),-0.0658
15,KAT2A_Q92830_695_VYPGLSCFK (UniProt Q92830),0.0125
16,KDM3A_Q9Y4C1_1009_EFGEQEVDLVNCR (UniProt Q9Y4C1),0.112
17,ITPR1_Q14643_768_CMSDENLPYDLR (UniProt Q14643),-0.028
18,KANK2_Q63ZY3_797_EIAGLLLAVPSCDISLTDR (UniProt Q63ZY3),-0.16

# Same assay, conditions: 50 µM; THP-1; incubation time: 4 h
row,Target,probe-labelled cysteine peptide fold change
1,KEAP1_Q14145_288_CEILQSDSR (UniProt Q14145),-0.113
2,IVNS1ABP_Q9Y6Y0_495_LWTSCAPLNIR (UniProt Q9Y6Y0),0.216
3,KCMF1_Q9P0J7_54_HTTDHPMQCILTR (UniProt Q9P0J7),-0.145
4,JADE1_Q6IE81_258+261_CLLCPK (UniProt Q6IE81),0.148
5,ITPR3_Q14573_2455_ACDTLLMCIVTVMNHGLR (UniProt Q14573),0.264
6,IVD_P26440_261_GSNTCELIFEDCKIPAANILGHENK (UniProt P26440),-0.0593
7,KIAA0930_Q6ICG6_119_LDYMVTCAVCTR (UniProt Q6ICG6),0.186
8,KDM3B_Q7LBC6_1045_EMCDVCETTLFNIHWVCR (UniProt Q7LBC6),0.0746
9,ITSN2_Q9NZM3_1429_ENSDRLEWIQAHVQCEGLAEQLIFNSLTNCLGPR (UniProt Q9NZM3),-0.633
10,KAT5_Q92993_234_NIECIELGR (UniProt Q92993),-0.0658
11,KDM4A_O75164_533_DSISSDSETSEPLSCR (UniProt O75164),0.0408
12,JMJD6_Q6NYC1_207_WCLFPTSTPR (UniProt Q6NYC1),0.0631
13,KIF11_P52732_723_QTHSQELCK (UniProt P52732),-0.0307
14,KANSL2_Q9H9L4_46_LEGQEFCIK (UniProt Q9H9L4),0.142
15,KCTD9_Q7L273_220_CQGLNFSGADLSR (UniProt Q7L273),0.0948
16,KBTBD11_O94819_257_DAAYCFMSDHYLEVLREPAVFGR (UniProt O94819),-0.0776
17,KIF14_Q15058_508_IHDLLVCK (UniProt Q15058),-0.094
18,KARS_Q15046_209_KGELSIIPYEITLLSPCLHMLPHLHFGLK (UniProt Q15046),-0.0518
19,ITPR1_Q14643_2224_TMEQIVFPVPSICEFLTK (UniProt Q14643),0.0354

row,Target,probe-labelled cysteine peptide fold change
1,KBTBD11_O94819_485_RDEWQECPCSSSR (UniProt O94819),0.00476
2,ITPRID2_P28290_878_TLSTHSVPNISGATCSAFASPFGCPYSHR (UniProt P28290),-0.235
3,JARID2_Q92833_206_TATNNASSSCQSTPR (UniProt Q92833),0.258
4,KDSR_Q06136_245_LISETTSVCKPEQVAK (UniProt Q06136),-0.148
5,KDM3B_Q7LBC6_937_EQEQDDSTVACR (UniProt Q7LBC6),0.3
6,KANK2_Q63ZY3_761+780_ALLACEADVNVQDDDGSTALMCACEHGHK (UniProt Q63ZY3),-0.091
7,JAK2_O60674_961_LLQYTSQICK (UniProt O60674),0.0718
8,KCTD18_Q6PI47_234_VPHELIECWTLEERPLLGSLR (UniProt Q6PI47),-0.0111
9,KDM1A_O60341_665_VVLCFDR (UniProt O60341),0.282
10,KDM3B_Q7LBC6_569_QSLESLSSGLCK (UniProt Q7LBC6),-0.241
11,KIAA0100_Q14667_1055_LVGTEQSGQPCSR (UniProt Q14667),-0.019
12,JMJD1C_Q15652_2163_LYSDIPHSWICEK (UniProt Q15652),-0.0464
13,JUP_P14923_457_AGDKDDITEPAVCALR (UniProt P14923),0.102
14,KDM5A_P29375_709_LVCLYHPTDLCPCPMQK (UniProt P29375),-0.042
15,KAT2A_Q92830_695_VYPGLSCFK (UniProt Q92830),0.0252
16,KDM3A_Q9Y4C1_1009_EFGEQEVDLVNCR (UniProt Q9Y4C1),-0.0279
17,ITPR1_Q14643_768_CMSDENLPYDLR (UniProt Q14643),0.197
18,KANK2_Q63ZY3_797_EIAGLLLAVPSCDISLTDR (UniProt Q63ZY3),0.211
